The entries are a selection whose mix differs from that of the whole data set.

Chains of the proteins cited; added tags and fusions are not shown. Lines headed by an entry give the natural chain unless they say otherwise; changes in a name come on top.
UniProt Q00610: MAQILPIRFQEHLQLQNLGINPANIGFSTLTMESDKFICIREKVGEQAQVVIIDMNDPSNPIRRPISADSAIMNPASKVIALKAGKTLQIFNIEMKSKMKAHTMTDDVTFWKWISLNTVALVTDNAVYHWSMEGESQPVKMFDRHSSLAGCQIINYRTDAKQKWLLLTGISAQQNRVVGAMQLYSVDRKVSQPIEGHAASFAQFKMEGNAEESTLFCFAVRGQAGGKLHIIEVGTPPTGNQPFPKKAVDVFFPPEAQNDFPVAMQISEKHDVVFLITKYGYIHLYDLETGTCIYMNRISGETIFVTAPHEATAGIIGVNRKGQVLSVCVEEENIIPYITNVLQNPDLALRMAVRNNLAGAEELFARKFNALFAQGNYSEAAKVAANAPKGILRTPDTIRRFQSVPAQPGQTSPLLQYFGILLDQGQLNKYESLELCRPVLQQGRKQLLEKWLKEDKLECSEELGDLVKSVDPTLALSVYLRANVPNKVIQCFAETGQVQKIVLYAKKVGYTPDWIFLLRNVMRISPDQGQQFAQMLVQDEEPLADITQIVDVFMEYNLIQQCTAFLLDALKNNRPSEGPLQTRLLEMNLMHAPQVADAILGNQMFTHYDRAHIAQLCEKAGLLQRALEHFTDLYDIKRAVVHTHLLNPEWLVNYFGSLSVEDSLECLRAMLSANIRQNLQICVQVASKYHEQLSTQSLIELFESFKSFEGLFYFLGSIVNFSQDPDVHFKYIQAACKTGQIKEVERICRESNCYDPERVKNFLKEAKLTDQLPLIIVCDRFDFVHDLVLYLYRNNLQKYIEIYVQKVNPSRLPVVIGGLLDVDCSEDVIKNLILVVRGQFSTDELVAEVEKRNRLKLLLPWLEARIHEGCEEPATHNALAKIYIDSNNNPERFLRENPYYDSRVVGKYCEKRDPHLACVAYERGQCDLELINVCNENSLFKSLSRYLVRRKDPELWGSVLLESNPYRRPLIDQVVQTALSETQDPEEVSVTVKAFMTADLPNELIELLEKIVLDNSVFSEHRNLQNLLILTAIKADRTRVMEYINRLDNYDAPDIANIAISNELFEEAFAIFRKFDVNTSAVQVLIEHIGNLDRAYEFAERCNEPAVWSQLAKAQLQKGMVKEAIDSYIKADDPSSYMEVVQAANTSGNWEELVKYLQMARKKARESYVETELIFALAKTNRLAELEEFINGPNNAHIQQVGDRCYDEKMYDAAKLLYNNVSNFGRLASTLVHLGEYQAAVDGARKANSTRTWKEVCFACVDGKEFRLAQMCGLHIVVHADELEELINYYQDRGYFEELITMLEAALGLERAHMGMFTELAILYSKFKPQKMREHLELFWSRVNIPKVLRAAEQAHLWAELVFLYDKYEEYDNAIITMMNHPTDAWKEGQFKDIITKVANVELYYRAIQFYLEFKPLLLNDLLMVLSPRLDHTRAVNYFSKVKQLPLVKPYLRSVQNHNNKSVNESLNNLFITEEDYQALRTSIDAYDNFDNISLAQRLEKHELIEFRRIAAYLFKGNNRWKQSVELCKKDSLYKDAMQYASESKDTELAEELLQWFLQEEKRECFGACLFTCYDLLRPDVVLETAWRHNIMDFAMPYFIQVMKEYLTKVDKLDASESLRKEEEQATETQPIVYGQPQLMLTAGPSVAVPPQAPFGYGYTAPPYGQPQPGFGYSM
UniProt P79522: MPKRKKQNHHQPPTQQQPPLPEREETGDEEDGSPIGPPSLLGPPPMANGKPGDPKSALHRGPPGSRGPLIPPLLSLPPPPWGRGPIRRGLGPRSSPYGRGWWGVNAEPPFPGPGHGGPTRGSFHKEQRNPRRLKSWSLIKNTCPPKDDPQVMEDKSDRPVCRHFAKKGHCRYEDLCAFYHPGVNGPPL
UniProt P78527, whole entry, looked up: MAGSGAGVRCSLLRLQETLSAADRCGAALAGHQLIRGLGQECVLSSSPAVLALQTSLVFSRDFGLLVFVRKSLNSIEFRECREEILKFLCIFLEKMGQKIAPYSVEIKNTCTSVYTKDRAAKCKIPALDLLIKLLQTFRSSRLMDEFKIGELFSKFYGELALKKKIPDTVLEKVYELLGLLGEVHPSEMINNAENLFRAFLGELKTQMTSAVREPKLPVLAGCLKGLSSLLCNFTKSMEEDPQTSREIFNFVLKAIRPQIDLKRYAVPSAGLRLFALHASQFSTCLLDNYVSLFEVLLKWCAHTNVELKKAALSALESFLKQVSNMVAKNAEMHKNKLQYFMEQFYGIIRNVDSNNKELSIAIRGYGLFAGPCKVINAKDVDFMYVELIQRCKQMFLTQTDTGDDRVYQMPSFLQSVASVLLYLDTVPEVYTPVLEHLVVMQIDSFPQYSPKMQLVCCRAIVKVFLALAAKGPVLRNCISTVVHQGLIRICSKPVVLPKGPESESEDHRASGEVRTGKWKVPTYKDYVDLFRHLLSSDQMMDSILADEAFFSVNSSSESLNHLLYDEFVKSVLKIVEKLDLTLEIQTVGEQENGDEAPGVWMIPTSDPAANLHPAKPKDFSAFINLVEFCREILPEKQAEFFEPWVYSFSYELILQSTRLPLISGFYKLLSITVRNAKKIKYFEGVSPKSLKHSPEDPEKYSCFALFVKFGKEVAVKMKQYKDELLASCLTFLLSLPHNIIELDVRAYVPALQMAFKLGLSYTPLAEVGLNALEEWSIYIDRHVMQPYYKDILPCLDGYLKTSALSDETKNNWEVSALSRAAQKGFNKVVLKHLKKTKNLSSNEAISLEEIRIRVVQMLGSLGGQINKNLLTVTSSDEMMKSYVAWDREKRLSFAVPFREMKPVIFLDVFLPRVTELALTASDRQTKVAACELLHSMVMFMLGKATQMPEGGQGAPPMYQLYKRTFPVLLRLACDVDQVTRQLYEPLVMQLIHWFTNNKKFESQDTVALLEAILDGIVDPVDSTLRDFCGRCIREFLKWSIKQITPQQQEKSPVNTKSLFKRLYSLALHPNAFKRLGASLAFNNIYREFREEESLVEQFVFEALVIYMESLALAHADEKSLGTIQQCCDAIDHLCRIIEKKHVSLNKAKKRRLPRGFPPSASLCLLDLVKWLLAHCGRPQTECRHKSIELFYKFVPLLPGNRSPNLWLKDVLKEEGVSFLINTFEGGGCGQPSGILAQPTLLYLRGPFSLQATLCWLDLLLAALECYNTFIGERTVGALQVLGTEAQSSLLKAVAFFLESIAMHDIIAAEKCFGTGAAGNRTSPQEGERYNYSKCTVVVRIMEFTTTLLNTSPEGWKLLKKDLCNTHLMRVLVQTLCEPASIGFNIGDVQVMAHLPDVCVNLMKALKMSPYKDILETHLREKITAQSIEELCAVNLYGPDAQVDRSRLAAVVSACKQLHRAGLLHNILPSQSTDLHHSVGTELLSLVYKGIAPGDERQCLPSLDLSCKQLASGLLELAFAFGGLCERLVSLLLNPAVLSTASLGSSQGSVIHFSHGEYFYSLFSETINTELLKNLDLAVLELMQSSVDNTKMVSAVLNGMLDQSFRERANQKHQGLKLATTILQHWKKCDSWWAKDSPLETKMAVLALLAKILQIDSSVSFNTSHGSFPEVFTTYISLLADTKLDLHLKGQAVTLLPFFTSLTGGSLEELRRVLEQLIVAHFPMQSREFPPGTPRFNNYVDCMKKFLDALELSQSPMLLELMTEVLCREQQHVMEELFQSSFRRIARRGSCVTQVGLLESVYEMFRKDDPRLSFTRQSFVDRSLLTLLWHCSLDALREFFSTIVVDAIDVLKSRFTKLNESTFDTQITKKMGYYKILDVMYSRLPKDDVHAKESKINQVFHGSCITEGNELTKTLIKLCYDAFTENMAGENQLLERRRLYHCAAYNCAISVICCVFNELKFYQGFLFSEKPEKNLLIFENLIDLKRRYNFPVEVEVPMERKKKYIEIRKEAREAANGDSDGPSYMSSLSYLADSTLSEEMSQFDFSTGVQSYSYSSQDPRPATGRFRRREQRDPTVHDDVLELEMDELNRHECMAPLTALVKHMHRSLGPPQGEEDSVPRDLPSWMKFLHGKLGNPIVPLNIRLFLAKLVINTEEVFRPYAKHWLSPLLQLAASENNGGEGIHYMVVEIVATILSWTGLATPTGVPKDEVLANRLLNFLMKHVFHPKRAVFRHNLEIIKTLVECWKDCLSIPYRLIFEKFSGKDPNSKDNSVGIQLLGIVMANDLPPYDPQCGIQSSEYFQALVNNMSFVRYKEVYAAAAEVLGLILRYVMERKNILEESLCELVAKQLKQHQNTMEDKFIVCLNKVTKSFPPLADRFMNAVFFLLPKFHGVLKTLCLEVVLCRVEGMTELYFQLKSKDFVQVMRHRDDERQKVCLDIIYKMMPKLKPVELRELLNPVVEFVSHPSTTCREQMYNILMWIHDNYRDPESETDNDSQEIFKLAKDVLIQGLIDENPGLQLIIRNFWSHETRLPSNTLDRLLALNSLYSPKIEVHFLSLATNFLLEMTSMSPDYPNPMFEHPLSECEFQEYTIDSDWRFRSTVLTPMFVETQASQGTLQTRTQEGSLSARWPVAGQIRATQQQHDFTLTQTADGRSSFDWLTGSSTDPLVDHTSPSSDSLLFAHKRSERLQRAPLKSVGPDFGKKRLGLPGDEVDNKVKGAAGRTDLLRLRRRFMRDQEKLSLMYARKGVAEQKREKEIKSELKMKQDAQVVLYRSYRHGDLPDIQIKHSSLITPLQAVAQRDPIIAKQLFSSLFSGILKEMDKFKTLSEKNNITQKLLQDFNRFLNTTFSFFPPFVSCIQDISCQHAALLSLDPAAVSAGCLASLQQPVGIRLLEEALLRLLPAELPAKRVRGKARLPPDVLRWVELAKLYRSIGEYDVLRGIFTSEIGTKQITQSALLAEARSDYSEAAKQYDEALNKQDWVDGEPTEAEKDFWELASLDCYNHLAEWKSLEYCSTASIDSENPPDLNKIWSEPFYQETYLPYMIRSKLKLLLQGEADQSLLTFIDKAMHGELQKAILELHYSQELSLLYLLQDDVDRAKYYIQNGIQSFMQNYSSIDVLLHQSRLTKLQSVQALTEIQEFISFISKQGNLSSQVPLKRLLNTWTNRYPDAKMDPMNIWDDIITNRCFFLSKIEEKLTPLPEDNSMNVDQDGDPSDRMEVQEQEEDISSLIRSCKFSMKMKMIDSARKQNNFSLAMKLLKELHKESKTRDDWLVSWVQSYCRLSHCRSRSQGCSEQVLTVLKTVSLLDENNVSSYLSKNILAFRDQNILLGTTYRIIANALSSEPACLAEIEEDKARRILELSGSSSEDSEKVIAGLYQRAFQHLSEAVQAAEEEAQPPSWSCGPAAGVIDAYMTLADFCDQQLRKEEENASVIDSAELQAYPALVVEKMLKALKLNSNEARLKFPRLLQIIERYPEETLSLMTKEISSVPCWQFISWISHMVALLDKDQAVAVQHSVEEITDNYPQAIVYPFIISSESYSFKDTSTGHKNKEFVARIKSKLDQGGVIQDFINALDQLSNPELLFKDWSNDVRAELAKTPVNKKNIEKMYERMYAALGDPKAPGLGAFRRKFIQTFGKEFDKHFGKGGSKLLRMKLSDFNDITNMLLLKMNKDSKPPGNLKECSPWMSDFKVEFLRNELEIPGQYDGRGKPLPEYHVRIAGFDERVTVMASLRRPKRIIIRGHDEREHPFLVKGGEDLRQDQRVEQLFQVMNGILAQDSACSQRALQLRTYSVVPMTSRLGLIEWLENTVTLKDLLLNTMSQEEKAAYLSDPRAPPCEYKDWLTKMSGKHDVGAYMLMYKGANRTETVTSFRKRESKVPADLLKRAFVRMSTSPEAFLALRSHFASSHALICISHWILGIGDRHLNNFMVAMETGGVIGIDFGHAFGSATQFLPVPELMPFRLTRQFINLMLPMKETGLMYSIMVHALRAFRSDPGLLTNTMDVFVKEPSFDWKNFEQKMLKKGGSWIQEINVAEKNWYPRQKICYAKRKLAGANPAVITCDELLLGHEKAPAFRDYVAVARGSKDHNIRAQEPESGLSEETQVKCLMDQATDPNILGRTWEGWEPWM
UniProt Q00796: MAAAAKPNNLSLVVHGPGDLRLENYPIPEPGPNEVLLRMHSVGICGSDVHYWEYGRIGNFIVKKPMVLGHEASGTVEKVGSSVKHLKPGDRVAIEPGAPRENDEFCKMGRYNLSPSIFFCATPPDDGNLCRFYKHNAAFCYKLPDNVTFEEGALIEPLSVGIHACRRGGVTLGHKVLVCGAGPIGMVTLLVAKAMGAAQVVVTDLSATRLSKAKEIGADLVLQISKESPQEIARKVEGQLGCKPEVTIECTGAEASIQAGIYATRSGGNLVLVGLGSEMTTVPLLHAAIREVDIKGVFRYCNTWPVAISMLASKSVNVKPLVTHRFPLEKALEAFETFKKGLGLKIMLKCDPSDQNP

Compound in the experiment: COC(=O)C#Cc1ccccc1 [methyl 3-phenylpropiolate]
Briefly: log2 ratio of iodoacetamide-alkyne labeling of the cysteine site, DMSO over compound (competition); higher = stronger covalent engagement of the cysteine by the compound, active = 1 or more. Particulars: 500 µM; treatment time 1 h; system: HEK293T cell lysate. The method in brief: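 For each cysteine, the log2 competition ratio is mean control-channel reporter intensity over mean compound-channel reporter intensity. HEK293T lysate (2 mg/mL) was exposed to vehicle or electrophile (500 µM, 1 h, ambient temperature), labelled with iodoacetamide alkyne (1 h), clicked to sCIP-TMT reagents, digested overnight with trypsin at 37 °C, streptavidin-enriched and analysed by Orbitrap Eclipse LC-MS/MS with FAIMS and FragPipe. Cysteines quantified in only one of three replicates, each with duplicate channels, were excluded.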
For UniProt P68431_C111, the “log2 ratio of iodoacetamide-alkyne labeling” value (“log2 ratio” for short) was inactive: 0.142.
Take UniProt P62280_C131: the “log2 ratio” value is inactive: 0.35.
On to EWSR1 C524 (UniProt Q01844), for which the “log2 ratio” value was inactive: -0.141.
Regarding RPS27A C144 (UniProt P62979), the “log2 ratio” value was inactive: -0.175.
As to MRPS9 C233 (UniProt P82933), the “log2 ratio” value is inactive: 0.339.
Turning to EXOSC10 C651 (UniProt Q01780), the “log2 ratio” value was inactive: 0.327.
As to CLTC C617 (UniProt Q00610), the “log2 ratio” value is inactive: 0.222.
For PPP2CA C196 (UniProt P67775), the “log2 ratio” value was inactive: 0.411.
The result for RPL10A C74 (UniProt P62906) reads inactive: -0.0195; that for PRR3 C176 (UniProt P79522), inactive: 0.0917; that for PFKP C343 (UniProt Q01813), inactive: 0.276.
Turning to MRPS21 C87 (UniProt P82921), the “log2 ratio” value is inactive: 0.059.
In the case of CLTC C1528 (UniProt Q00610), the “log2 ratio” value is inactive: 0.222.
The result for CLTC C491 (UniProt Q00610) reads inactive: 0.213; that for UniProt P62263_C85, inactive: 0.0387; that for UniProt P78527_C931, inactive: -0.141.
The result for AMPD2 C123 (UniProt Q01433) reads inactive: 0.77.
For UniProt P62910_C91, the “log2 ratio” value was inactive: 0.6.
With RPL7A C199 (UniProt P62424), the “log2 ratio” value is inactive: 0.117.
The figure for SPTBN1 C964 (UniProt Q01082) is inactive: 0.192; for SORD C130 (UniProt Q00796) it is inactive: 0.000899; for UniProt P63244_C207 it is inactive: 0.273.

The record behind these values is the supplement of paper PMC11006884.
